Paper PMC7927628
Results are given in words; binding and its absence hold for the method and conditions named. Binding seen in cells or lysates may run through a third protein. Some results given as binding are weak or reduced against the parent protein; the word gives no strength.

The chains behind the UniProt entries cited, without tags or fusion partners.
UniProt O75901: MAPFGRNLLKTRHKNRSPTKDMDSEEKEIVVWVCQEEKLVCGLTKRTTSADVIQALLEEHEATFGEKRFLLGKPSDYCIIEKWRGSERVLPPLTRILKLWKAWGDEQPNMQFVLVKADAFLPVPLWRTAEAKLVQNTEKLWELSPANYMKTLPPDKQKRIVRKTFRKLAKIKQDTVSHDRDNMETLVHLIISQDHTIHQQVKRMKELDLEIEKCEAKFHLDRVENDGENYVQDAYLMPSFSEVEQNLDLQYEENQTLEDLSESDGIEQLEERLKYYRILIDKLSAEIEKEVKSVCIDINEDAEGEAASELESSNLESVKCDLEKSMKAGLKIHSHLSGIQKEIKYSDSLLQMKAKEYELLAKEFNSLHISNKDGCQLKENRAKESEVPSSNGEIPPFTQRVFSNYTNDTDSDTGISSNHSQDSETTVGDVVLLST

Columns and labels:
[1] = molecular target: T1, TGF‐β‐activated kinase 1 (TAK1) (UniProt O43318); test: pull-down; pull-down of TAK1 and RASSF9 (Figure S10D,E); details only in the Supporting Information
T1 sequence: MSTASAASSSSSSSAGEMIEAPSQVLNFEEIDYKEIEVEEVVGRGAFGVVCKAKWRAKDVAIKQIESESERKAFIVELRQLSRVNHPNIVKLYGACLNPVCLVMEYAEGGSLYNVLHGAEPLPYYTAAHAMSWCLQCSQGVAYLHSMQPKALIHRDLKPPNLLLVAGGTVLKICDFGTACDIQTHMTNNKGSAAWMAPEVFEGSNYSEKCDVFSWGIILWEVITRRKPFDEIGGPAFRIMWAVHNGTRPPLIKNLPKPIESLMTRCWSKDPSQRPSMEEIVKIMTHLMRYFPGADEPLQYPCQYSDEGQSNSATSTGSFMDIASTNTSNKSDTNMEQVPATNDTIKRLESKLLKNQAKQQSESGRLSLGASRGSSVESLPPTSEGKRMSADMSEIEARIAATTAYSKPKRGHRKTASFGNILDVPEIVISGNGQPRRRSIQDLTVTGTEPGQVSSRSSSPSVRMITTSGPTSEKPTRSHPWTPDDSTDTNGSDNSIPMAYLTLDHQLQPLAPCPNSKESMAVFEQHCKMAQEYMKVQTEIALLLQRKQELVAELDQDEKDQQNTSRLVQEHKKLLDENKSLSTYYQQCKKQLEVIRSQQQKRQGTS

[2] = molecular target: T1, TGF‐β‐activated kinase 1 (TAK1); test: co-IP; co-immunoprecipitation of TAK1 and RASSF9 (Figure S10D,E); details only in the Supporting Information

Ras association domain family 9 (RASSF9) (from UniProt O75901 1-435)
binding [1]: binds
binding [2]: binds
